Results reported in PubChem BioAssay AID192 (DTP/NCI, 2004).
The list shows only some results of the screen, not a fair sample: it is rich in T/C values a quarter to a half above the control, in often repeated tests (any T/C) and in doses without a T/C. Other doses and runs of a compound stand elsewhere. T/C gives the treated animals as a percentage of the vehicle group. Some doses have a count of surviving animals in place of a T/C: the source holds a T/C of zero for them, seemingly a mark for toxic or unscored doses. Some survivor counts are full or nearly so, which does not show that the dose was tolerated: the source hardly ever lists a survival T/C far under the control, and the zero likely stands for such cases as well. Counts of survivors are from the toxicity check (mostly the fifth day) where no day follows; animals may have died later. Schedules are NCI's codes, taken here to give the interval after Q, in days (D) or hours (H), and the number of doses after X. Some doses were run more than once; their values stand side by side, smallest first. Marks such as (2×) give the number of equal values in this list. Where survival is the endpoint, the PubChem record calls one and a half times the control and up active, and a quarter to a half above the control has no call in these data; cut-offs in other NCI protocols can differ. Some T/C values are followed by the survivors on the day toxicity was checked, most often the fifth; without a count, all were alive then.

Tested on: BDF1 mice, B16 melanoma ip, median survival T/C
Assay: NCI In Vivo Anticancer Drug Screen. Data for tumor model B16 Melanoma (intraperitoneal) in B6D2F1 (BDF1) mice
Conditions: T/C endpoint: median survival time, higher T/C = longer survival
Procedure, shortened: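 Read-out: survival or tumor size, given as treated/control ratio. Controls received vehicle only; animals bore transplantable tumors.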

[1] = dose: 6.0 mg/kg/injection, schedule: Q01DX009 (ip), vehicle: Klucel (hydroxypropylcellulose) (HPC)
[2] = dose: 200.0 mg/kg/injection, schedule: Q04DX003 (ip), vehicle: saline
[3] = dose: 100.0 mg/kg/injection, schedule: Q01DX009 (ip), vehicle: Klucel (hydroxypropylcellulose) (HPC)
[4] = dose: 200.0 mg/kg/injection, schedule: Q01DX009 (ip), vehicle: Klucel (hydroxypropylcellulose) (HPC)
[5] = dose: 400.0 mg/kg/injection, schedule: Q01DX009 (ip), vehicle: Klucel (hydroxypropylcellulose) (HPC)
[6] = dose: 25.0 mg/kg/injection, schedule: Q04DX003 (ip), vehicle: saline with Tween-80
[7] = dose: 50.0 mg/kg/injection, schedule: Q04DX003 (ip), vehicle: saline with Tween-80
[8] = dose: 25.0 mg/kg/injection, schedule: Q01DX009 (ip), vehicle: Klucel (hydroxypropylcellulose) (HPC)
[9] = dose: 20.0 mg/kg/injection, schedule: Q01DX009 (ip), vehicle: saline

## Nc1ncn(C2OC(CO)C(O)C2O)c(=O)n1 (configuration not stated)
dose: 0.75 mg/kg/injection, schedule: Q01DX009 (ip), vehicle: Klucel (hydroxypropylcellulose) (HPC)
  T/C: 90 [5 of 6 alive], 100 (2×), 103 % of control [5 of 6 alive]
dose: 0.75 mg/kg/injection, schedule: Q01DX009 (ip), vehicle: saline, evaluated on day 45
  T/C: 105 and 128 % of control (2×)
dose: 0.75 mg/kg/injection, schedule: Q01DX009 (ip), vehicle: saline, evaluated on day 60
  T/C: 94, 97 (2×), 100, 100 [5 of 6 alive], 105, 107, 108, 109, 110 (3×), 111, 112, 114, 115 (2×), 117, 119 (2×), 122 % of control (3×)
dose: 1.5 mg/kg/injection, schedule: Q01DX009 (ip), vehicle: Klucel (hydroxypropylcellulose) (HPC)
  T/C: 96, 103 [4 of 6 alive], 106, 157 % of control
dose: 1.5 mg/kg/injection, schedule: Q01DX009 (ip), vehicle: saline, evaluated on day 45
  T/C: 102, 120, 136 % of control
dose: 1.5 mg/kg/injection, schedule: Q01DX009 (ip), vehicle: saline, evaluated on day 60
  T/C: 91, 94 [9 of 10 alive], 96, 100, 104, 105, 107, 109, 111, 112, 113, 114, 116 (2×), 119 (2×), 126 (2×), 127, 142, 144, 147, 153 % of control
dose: 3.0 mg/kg/injection, schedule: Q01DX009 (ip), vehicle: Klucel (hydroxypropylcellulose) (HPC)
  T/C: 93, 100, 106 [5 of 6 alive], 111 % of control
dose: 3.0 mg/kg/injection, schedule: Q01DX009 (ip), vehicle: saline with Tween-80
  T/C: 143 % of control
dose: 3.0 mg/kg/injection, schedule: Q01DX009 (ip), vehicle: saline, evaluated on day 45
  T/C: 86, 108, 144 % of control
dose: 3.0 mg/kg/injection, schedule: Q01DX009 (ip), vehicle: saline, evaluated on day 60
  T/C: 93, 94, 100 (2×), 102 (2×), 105, 113 (2×), 114, 119, 120, 124, 125, 126, 131, 142, 144, 147 (3×), 160 % of control
dose: 3.0 mg/kg/injection, schedule: Q01DX009 (ip), vehicle: saline
  survivor count: 6 of 6
dose: 4.0 mg/kg/injection, schedule: Q01DX009 (ip), vehicle: suspension in saline
  survivor count: 10 of 10
[1]
  T/C: 103 [5 of 6 alive] and 106 % of control
  survivor count: 6 of 6
dose: 6.0 mg/kg/injection, schedule: Q01DX009 (ip), vehicle: saline with Tween-80
  T/C: 140 % of control
dose: 6.0 mg/kg/injection, schedule: Q01DX009 (ip), vehicle: saline, evaluated on day 45
  T/C: 121 % of control
dose: 6.0 mg/kg/injection, schedule: Q01DX009 (ip), vehicle: saline, evaluated on day 60
  T/C: 90, 100 (3×), 102 [5 of 6 alive], 105, 111, 115, 119, 127, 139, 180 % of control
dose: 6.0 mg/kg/injection, schedule: Q01DX009 (ip), vehicle: saline
  survivor count: 5 of 6 (2×), 10 of 10, 6 of 6 (2×)
dose: 8.0 mg/kg/injection, schedule: Q01DX009 (ip), vehicle: suspension in saline
  survivor count: 9 of 10

## COc1cccc(NC(=O)CCC(=O)O)c1
dose: 0.78 mg/kg/injection, schedule: Q01DX009 (ip), vehicle: Klucel (hydroxypropylcellulose) (HPC)
  survivor count: 10 of 10

## CC1(C)N=C(N)N=C(N)N1c1cccc(C#N)c1
dose: 150.0 mg/kg/injection, schedule: Q01DX009 (ip), vehicle: saline
  survivor count: 0 of 10
[2]
  survivor count: 2 of 10
dose: 225.0 mg/kg/injection, schedule: Q01DX009 (ip), vehicle: saline
  survivor count: 0 of 10
dose: 335.0 mg/kg/injection, schedule: Q01DX009 (ip), vehicle: saline
  survivor count: 0 of 10

## CCc1ccc(NC(=O)Nc2ccccc2)cc1
[3]
  survivor count: 10 of 10
[4]
  survivor count: 10 of 10
[5]
  survivor count: 10 of 10

## CC1(C)N=C(N)N=C(N)N1c1ccc(OCc2ccc(C(=O)Nc3cccc(S(=O)(=O)F)c3)cc2)c(Cl)c1
[6]
  T/C: 127 % of control
[7]
  T/C: 140 % of control
dose: 100.0 mg/kg/injection, schedule: Q04DX003 (ip), vehicle: saline with Tween-80
  T/C: 129 % of control
dose: 100.0 mg/kg/injection, schedule: Q04DX003 (ip), vehicle: saline
  survivor count: 6 of 6
[2]
  survivor count: 6 of 6
dose: 400.0 mg/kg/injection, schedule: Q04DX003 (ip), vehicle: saline
  survivor count: 1 of 6

## Cc1ccc(C(C)(C)C[P+](C)(c2ccccc2)c2ccccc2)cc1
[8]
  survivor count: 10 of 10
dose: 50.0 mg/kg/injection, schedule: Q01DX009 (ip), vehicle: Klucel (hydroxypropylcellulose) (HPC)
  survivor count: 2 of 10
[3]
  survivor count: 0 of 10
[4]
  survivor count: 0 of 10

## O=C(O)c1ccccc1C(=O)c1ccc(CBr)cc1
dose: 0.38 mg/kg/injection, schedule: Q01DX009 (ip), vehicle: saline with Tween-80
  survivor count: 10 of 10
dose: 0.75 mg/kg/injection, schedule: Q01DX009 (ip), vehicle: saline with Tween-80
  survivor count: 10 of 10
dose: 3.13 mg/kg/injection, schedule: Q04DX003 (ip), vehicle: saline with Tween-80
  survivor count: 10 of 10
dose: 6.25 mg/kg/injection, schedule: Q04DX003 (ip), vehicle: saline with Tween-80
  survivor count: 10 of 10

## N#CSCc1ccccc1Cl
dose: 12.5 mg/kg/injection, schedule: Q04DX003 (ip), vehicle: saline with Tween-80
  survivor count: 10 of 10
dose: 25.0 mg/kg/injection, schedule: Q01DX009 (ip), vehicle: saline with Tween-80
  survivor count: 2 of 10
[6]
  survivor count: 10 of 10
[7]
  survivor count: 0 of 10

## CC(=O)Oc1ccc(OC(C)=O)c2c1C(=O)C=CC2=O
dose: 2.0 mg/kg/injection, schedule: Q01DX009 (ip), vehicle: Klucel (hydroxypropylcellulose) (HPC)
  survivor count: 9 of 10
dose: 3.12 mg/kg/injection, schedule: Q01DX009 (ip), vehicle: Klucel (hydroxypropylcellulose) (HPC)
  survivor count: 10 of 10
dose: 6.25 mg/kg/injection, schedule: Q01DX009 (ip), vehicle: Klucel (hydroxypropylcellulose) (HPC)
  survivor count: 6 of 10
dose: 12.5 mg/kg/injection, schedule: Q01DX009 (ip), vehicle: Klucel (hydroxypropylcellulose) (HPC)
  survivor count: 10 of 10
[8]
  survivor count: 0 of 10

## O=C(Nc1ccccc1)Nc1cc(C(F)(F)F)ccc1Cl
dose: 100.0 mg/kg/injection, schedule: Q04DX003 (ip), vehicle: carboxymethylcellulose (CMC)
  survivor count: 9 of 10

## Cc1ccc(NC(=O)COc2ccc(Cl)cc2Cl)c([N+](=O)[O-])c1
[4]
  survivor count: 10 of 10
[5]
  survivor count: 9 of 10

## CCc1ccccc1NC(=O)Nc1ccccc1OC
[3]
  survivor count: 10 of 10
[4]
  survivor count: 10 of 10
[5]
  survivor count: 10 of 10

## O=c1sc(N=Nc2ccccc2)nn1-c1ccccc1
dose: 400.0 mg/kg/injection, schedule: Q04DX003 (ip), vehicle: Klucel (hydroxypropylcellulose) (HPC)
  survivor count: 6 of 10

## Cn1c(CCCC(=O)O)nc2cc(N(CCCl)CCCl)ccc21
dose: 2.5 mg/kg/injection, schedule: Q01DX009 (ip), vehicle: saline
  T/C: 137 % of control
dose: 5.0 mg/kg/injection, schedule: Q01DX009 (ip), vehicle: saline
  T/C: 140 % of control
[9]
  T/C: 149 % of control
  survivor count: 9 of 10
dose: 30.0 mg/kg/injection, schedule: Q01DX009 (ip), vehicle: saline
  survivor count: 10 of 10

## COc1ccc(N2C(=O)CC(Sc3ccccc3N)C2=O)cc1 (configuration not stated)
[3]
  survivor count: 10 of 10
[4]
  survivor count: 9 of 10
[5]
  survivor count: 7 of 10

## CCN1/C(=C/C=C/C=C/c2sc3ccccc3[n+]2CC)Sc2ccccc21
dose: 0.4 mg/kg/injection, schedule: Q01DX009 (ip), vehicle: saline
  survivor count: 10 of 10

## CNC(c1ccncc1)C(NC)c1ccncc1 (configuration not stated)
dose: 200.0 mg/kg/injection, schedule: Q04DX003 (ip), vehicle: Klucel (hydroxypropylcellulose) (HPC)
  survivor count: 10 of 10
